Read-outs that look alike come from different tables or passages of the source.

B1: wild type LovD: A. terreus LovD acyltransferase polypeptide, SEQ ID NO: 1 (protein, listed as Aspergillus terreus)
chain: MGSIIDAAAAADPVVLMETAFRKAVKSRQIPGAVIMARDCSGNLNYTRCFGARTVRRDECNQLPPLQVDTPCRLASATKLLTTIMALQCMERGLVDLDETVDRLLPDLSAMPVLEGFDDAGNARLRERRGKITLRHLLTHTSGLSYVFLHPLLREYMAQGHLQSAEKFGIQSRLAPPAVNDPGAEWIYGANLDWAGKLVERATGLDLEQYLQENICAPLGITDMTFKLQQRPDMLARRADQTHRNSADGRLRYDDSVYFRADGEECFGGQGVFSGPGSYMKVLHSLLKRDGLLLQPQTVDLMFQPALEPRLEEQMNQHMDASPHINYGGPMPMVLRRSFGLGGIIALEDLDGENWRRKGSLTFGGGPNIVWQIDPKAGLCTLAFFQLEPWNDPVCRDLTRTFEHAIYAQYQQG
In the case of B1, the “LovD Concentration” value is recorded as 1500 mg/L (F1 fed-batch high density), 34 mg/L (F1 low density), 96 mg/L (LB low density) and 980 mg/L (TB high density).

These data come from patent publication US10689628B2, “Method of making variant LovD polypeptides” (THE REGENTS OF THE UNIVERSITY OF CALIFORNIA, priority 2009, dated 2020).
